These results are taken from the supplement of paper PMC11006884.

Amino acid sequences for entries named in this document (tags omitted). A change or cut given only in a name is not applied to a line headed by its entry.
UniProt O95229: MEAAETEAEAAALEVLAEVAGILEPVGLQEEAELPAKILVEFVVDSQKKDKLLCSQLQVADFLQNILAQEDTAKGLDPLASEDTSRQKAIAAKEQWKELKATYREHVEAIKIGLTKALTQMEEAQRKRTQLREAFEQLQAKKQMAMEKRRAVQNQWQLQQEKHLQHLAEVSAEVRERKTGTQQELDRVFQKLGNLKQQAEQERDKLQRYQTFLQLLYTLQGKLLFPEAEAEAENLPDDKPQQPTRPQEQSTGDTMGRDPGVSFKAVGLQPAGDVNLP
UniProt O95613: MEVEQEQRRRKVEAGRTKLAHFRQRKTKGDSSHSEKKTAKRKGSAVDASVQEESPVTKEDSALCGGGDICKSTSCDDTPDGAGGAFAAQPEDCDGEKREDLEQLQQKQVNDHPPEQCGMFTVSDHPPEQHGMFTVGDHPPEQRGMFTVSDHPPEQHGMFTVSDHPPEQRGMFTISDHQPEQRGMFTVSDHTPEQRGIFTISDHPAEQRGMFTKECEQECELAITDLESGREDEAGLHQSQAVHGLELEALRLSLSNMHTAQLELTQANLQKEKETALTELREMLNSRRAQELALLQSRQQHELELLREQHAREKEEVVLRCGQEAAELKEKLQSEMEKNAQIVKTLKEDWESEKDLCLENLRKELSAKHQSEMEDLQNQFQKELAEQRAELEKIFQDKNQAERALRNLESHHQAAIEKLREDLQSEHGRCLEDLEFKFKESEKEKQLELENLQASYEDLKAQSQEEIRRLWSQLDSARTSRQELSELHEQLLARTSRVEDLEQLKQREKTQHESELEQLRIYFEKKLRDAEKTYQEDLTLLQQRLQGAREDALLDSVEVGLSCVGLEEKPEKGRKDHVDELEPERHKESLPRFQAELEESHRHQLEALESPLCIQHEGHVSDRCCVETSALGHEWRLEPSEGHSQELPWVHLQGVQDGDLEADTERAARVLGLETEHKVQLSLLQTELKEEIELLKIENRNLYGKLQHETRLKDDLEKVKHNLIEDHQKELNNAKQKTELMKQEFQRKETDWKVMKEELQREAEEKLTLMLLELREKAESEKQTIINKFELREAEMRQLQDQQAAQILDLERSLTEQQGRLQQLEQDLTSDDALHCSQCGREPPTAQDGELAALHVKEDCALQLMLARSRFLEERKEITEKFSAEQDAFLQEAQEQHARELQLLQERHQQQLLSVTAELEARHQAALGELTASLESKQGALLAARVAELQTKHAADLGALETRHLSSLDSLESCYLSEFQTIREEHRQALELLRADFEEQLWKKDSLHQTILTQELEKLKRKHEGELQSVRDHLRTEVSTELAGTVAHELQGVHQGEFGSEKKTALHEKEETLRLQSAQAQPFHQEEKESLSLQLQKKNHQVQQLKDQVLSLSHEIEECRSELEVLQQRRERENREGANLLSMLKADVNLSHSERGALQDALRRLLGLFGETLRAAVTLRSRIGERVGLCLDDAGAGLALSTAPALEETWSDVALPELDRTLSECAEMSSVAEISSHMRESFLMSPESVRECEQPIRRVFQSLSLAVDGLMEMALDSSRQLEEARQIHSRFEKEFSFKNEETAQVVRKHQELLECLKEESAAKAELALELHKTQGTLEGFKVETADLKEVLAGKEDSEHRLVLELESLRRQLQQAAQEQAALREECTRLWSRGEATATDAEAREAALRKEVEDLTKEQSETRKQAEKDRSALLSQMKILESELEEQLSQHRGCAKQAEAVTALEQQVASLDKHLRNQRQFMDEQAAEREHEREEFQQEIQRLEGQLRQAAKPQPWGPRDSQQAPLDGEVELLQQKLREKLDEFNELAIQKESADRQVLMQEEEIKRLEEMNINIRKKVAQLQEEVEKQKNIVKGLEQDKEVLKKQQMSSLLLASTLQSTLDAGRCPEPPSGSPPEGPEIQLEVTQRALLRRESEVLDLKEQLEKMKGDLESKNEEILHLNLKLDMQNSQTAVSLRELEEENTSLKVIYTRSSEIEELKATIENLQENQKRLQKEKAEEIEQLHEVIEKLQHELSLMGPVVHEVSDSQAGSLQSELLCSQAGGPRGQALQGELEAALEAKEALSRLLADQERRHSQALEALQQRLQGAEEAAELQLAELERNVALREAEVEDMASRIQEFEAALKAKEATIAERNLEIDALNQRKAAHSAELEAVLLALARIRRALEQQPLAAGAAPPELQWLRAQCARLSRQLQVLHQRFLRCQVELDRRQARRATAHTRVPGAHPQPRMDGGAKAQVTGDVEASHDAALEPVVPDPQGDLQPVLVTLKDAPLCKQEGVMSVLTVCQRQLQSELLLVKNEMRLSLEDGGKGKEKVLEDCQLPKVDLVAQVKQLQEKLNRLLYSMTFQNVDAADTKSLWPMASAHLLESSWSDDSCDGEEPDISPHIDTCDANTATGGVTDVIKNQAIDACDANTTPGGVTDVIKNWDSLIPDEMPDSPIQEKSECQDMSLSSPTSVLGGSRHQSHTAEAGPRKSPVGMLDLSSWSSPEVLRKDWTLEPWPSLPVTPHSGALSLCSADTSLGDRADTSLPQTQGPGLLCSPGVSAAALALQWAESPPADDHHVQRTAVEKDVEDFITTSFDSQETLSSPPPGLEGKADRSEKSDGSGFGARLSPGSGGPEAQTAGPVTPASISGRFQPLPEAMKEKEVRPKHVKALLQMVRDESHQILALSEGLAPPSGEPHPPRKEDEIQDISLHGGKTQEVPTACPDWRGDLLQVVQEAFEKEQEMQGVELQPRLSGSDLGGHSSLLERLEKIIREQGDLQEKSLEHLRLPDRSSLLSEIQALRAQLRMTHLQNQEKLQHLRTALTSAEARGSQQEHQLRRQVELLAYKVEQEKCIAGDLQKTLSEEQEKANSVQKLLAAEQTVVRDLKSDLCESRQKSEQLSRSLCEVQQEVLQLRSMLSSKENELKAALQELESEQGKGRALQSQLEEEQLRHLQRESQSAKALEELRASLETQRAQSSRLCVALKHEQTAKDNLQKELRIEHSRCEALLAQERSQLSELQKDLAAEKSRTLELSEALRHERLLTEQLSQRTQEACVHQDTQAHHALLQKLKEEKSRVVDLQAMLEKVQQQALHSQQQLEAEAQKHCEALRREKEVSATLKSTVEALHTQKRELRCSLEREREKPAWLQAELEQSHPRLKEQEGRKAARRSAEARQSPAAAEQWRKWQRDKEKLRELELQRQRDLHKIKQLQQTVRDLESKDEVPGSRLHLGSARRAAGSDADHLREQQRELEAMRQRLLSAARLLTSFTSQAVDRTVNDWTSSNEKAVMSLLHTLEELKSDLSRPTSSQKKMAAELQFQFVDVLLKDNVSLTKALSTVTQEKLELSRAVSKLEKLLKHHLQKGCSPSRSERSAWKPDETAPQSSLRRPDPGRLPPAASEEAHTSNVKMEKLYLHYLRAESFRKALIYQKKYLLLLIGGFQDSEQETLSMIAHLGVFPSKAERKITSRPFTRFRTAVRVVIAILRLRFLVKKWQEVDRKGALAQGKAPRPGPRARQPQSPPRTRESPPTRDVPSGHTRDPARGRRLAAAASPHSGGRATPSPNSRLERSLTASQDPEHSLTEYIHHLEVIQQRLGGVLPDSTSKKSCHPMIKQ
UniProt O95425, whole entry, looked up: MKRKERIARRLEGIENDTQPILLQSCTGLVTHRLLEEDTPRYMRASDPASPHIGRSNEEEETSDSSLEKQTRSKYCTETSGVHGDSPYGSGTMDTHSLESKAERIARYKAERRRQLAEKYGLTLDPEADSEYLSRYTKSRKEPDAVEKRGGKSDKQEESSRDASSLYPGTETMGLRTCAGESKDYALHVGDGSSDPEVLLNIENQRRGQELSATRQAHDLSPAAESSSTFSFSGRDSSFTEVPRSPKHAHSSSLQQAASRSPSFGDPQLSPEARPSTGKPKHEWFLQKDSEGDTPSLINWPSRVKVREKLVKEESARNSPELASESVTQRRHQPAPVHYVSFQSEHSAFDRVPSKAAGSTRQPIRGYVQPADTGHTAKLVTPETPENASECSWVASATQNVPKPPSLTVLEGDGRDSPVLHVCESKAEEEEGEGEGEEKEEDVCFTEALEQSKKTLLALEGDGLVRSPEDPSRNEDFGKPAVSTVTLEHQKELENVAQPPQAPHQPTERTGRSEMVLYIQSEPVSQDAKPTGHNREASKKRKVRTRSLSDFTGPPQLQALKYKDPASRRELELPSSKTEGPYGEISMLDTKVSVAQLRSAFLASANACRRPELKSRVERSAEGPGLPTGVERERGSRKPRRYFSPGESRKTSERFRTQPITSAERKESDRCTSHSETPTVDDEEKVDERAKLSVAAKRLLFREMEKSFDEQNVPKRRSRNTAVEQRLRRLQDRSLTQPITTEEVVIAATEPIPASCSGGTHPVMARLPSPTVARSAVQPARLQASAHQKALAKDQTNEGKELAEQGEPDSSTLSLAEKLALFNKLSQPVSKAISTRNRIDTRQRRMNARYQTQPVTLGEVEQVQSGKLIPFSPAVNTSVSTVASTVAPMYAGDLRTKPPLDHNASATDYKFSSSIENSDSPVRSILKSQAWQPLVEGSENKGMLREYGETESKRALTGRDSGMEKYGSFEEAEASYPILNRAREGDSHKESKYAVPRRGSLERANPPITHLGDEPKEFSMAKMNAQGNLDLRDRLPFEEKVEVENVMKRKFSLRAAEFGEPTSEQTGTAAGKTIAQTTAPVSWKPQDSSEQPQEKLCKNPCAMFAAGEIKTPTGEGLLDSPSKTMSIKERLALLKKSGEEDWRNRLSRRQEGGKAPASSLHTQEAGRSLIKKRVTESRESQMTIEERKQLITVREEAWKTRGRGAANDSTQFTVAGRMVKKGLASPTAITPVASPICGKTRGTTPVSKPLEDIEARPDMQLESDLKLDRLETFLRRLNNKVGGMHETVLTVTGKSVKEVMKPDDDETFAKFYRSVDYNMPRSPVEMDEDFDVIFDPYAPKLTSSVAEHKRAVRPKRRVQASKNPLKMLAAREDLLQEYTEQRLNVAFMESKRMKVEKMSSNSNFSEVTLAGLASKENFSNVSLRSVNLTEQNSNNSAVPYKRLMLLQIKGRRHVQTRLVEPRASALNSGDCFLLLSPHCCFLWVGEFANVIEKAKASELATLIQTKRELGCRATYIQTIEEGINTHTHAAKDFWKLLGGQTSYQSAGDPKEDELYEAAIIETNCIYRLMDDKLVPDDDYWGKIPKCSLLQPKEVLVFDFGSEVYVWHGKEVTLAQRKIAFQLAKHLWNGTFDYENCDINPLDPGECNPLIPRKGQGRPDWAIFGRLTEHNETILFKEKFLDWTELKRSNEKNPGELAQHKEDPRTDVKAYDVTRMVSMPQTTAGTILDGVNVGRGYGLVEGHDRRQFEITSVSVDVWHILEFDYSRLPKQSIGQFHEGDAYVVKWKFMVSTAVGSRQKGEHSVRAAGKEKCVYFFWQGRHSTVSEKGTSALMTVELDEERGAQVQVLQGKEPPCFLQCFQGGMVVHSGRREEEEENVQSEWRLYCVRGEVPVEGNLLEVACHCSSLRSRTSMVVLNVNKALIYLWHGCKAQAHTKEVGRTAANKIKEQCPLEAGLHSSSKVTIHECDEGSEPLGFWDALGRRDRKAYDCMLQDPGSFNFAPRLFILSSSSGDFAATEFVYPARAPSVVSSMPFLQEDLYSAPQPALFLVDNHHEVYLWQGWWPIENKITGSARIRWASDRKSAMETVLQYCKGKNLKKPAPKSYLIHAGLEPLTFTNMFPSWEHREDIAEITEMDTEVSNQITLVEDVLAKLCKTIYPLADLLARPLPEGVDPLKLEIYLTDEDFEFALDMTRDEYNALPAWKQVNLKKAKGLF
UniProt O95573: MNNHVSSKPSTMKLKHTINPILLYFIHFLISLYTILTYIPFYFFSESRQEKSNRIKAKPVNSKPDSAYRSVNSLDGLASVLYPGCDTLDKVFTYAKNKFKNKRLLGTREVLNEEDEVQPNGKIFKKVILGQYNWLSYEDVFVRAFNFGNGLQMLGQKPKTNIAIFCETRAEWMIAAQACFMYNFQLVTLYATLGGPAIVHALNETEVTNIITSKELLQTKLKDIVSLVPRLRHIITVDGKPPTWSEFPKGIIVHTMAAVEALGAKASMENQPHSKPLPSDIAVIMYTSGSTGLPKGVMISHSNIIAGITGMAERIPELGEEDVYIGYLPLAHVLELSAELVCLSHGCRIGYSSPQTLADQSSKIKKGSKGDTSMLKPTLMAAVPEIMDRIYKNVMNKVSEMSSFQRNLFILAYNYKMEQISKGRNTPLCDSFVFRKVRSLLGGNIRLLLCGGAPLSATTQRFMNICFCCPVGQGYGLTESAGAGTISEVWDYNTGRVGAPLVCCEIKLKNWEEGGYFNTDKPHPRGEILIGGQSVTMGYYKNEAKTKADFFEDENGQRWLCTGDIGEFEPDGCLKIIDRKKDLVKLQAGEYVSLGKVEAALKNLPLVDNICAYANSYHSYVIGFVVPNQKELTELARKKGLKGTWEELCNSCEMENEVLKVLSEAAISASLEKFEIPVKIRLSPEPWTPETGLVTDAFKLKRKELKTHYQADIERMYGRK

This is a selection; strong and weak results do not stand in their true shares. Single values of this set are uncertain.

Compound in this experiment: COC(=O)/C=C/c1ccccc1 [methyl cinnamate]
Put plainly: log2 ratio of iodoacetamide-alkyne labeling of the cysteine site, DMSO over compound (competition); higher = stronger covalent engagement of the cysteine by the compound, active = 1 or more. To be noted: 500 µM; treatment time 1 h; system: HEK293T cell lysate. Summed up:
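HEK293T lysate (2 mg/mL) was treated with DMSO or electrophile (500 µM, 1 h, ambient temperature), then iodoacetamide alkyne (1 h), clicked to sCIP-TMT reagents, pooled, trypsin-digested overnight at 37 °C, streptavidin-enriched and acid-eluted. Peptides were run on Orbitrap Eclipse LC-MS/MS with FAIMS and quantified in FragPipe. The log2 competition ratio per cysteine is mean control-channel over mean compound-channel reporter intensity. Duplicate channels and three replicates were used, and cysteines quantified in only one replicate were excluded.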
UniProt O95071_C739: the “log2 ratio of iodoacetamide-alkyne labeling” value (“log2 ratio” below) is inactive: -0.219. As for EPRS C1377 (UniProt P07814), the “log2 ratio” value is inactive: 0.118. Turning to MYO1D C143 (UniProt O94832), the “log2 ratio” value is inactive: 0.462. Turning to ZWINT C54 (UniProt O95229), the “log2 ratio” value was inactive: 0.205. With UniProt P07437_C303, the “log2 ratio” value was inactive: -0.0433. Regarding HERC2 C221 (UniProt O95714), the “log2 ratio” value is inactive: -0.0658. As to PCNT C2628 (UniProt O95613), the “log2 ratio” value is inactive: 0.149. Regarding PRPF6 C429 (UniProt O94906), the “log2 ratio” value is inactive: 0.445. Regarding RPLP1 C61 (UniProt P05386), the “log2 ratio” value was inactive: 0.229.

Take UniProt O96028_C1315: the “log2 ratio” value is inactive: 0.0383.

For GPX1 C202 (UniProt P07203), the “log2 ratio” value is inactive: 0.132.

Take SVIL C26 (UniProt O95425): the “log2 ratio” value was inactive: 0.237. As to HSPA4L C167 (UniProt O95757), the “log2 ratio” value is inactive: 0.22. For ACSL3 C429 (UniProt O95573), the “log2 ratio” value was inactive: 0.118. Turning to PRPF6 C837 (UniProt O94906), the “log2 ratio” value was inactive: -0.0345.
